Construct, isoform or probe ends are uncertain for at least one entry.

This data set concerns GST-MaEIL4 (Musa spp. (banana)). The data set can be described thus: EMSA. The following applies: EMSA according to Liu et al. [22]; recombinant protein; protein details: GST (pGEX-4T-1).

Take “CTTTGAA (double strand) [MaMADS36 promoter TGAA probe]”: the binding result is “binds”.

These data come from PMC11878764, “MaEIL4-MaMADS36-MaACS7 module transcriptionally regulates ethylene biosynthesis during banana fruit ripening”.
